Results as given in the supplement of paper PMC10849652.
Some of the results follow.

Amino acid sequences for entries named in this document (tags omitted). A change or cut given only in a name is not applied to a line headed by its entry.
UniProt Q9Y4K4: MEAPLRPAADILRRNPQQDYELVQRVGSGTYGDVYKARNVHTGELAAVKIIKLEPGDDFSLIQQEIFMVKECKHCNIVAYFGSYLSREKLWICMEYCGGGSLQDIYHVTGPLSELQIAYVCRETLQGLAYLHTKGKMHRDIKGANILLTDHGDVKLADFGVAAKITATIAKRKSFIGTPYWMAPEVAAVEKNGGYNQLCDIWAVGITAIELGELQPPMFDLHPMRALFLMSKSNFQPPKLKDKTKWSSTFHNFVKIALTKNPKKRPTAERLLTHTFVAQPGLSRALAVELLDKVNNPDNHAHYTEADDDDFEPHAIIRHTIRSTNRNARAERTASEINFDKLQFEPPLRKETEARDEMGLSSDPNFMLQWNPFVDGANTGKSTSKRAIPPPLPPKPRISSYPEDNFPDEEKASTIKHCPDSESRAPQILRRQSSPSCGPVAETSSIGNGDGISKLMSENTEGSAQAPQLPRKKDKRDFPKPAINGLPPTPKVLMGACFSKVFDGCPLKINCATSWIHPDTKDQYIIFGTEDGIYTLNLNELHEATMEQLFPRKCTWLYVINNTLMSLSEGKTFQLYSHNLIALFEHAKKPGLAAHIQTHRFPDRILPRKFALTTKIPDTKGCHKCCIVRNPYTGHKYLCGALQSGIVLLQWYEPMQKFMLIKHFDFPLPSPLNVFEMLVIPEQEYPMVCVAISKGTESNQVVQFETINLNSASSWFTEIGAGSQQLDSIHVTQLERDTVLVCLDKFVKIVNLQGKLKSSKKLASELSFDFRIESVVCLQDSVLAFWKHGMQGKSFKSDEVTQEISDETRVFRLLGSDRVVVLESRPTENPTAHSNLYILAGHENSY
UniProt Q14244: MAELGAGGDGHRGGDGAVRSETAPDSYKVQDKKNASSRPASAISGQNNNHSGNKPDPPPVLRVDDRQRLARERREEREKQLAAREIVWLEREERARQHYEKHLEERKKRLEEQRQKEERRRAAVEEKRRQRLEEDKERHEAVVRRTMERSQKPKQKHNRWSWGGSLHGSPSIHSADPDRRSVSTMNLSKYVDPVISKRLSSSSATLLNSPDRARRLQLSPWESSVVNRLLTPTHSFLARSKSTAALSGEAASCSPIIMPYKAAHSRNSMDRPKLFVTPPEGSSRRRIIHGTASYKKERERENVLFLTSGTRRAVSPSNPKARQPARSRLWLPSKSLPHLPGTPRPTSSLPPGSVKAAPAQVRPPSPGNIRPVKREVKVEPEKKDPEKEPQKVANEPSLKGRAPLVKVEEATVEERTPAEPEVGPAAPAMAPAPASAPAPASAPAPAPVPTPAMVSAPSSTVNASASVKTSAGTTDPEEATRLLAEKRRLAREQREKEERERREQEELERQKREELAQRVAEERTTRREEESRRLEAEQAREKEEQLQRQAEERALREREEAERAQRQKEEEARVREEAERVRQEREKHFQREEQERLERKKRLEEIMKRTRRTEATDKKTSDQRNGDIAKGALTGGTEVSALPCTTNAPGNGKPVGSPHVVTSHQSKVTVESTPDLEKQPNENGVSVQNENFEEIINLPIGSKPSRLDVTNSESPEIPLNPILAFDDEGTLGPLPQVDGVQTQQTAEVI
UniProt Q9H0U3: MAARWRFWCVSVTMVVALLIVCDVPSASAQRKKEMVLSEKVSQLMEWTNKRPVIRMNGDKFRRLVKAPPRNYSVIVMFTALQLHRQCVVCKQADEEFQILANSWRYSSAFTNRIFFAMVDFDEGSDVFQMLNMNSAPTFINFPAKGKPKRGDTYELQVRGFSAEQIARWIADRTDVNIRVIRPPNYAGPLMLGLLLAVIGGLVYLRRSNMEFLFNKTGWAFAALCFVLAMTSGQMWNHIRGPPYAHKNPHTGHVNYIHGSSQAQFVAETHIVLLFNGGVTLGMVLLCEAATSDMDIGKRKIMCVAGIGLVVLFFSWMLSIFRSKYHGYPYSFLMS
UniProt O94822: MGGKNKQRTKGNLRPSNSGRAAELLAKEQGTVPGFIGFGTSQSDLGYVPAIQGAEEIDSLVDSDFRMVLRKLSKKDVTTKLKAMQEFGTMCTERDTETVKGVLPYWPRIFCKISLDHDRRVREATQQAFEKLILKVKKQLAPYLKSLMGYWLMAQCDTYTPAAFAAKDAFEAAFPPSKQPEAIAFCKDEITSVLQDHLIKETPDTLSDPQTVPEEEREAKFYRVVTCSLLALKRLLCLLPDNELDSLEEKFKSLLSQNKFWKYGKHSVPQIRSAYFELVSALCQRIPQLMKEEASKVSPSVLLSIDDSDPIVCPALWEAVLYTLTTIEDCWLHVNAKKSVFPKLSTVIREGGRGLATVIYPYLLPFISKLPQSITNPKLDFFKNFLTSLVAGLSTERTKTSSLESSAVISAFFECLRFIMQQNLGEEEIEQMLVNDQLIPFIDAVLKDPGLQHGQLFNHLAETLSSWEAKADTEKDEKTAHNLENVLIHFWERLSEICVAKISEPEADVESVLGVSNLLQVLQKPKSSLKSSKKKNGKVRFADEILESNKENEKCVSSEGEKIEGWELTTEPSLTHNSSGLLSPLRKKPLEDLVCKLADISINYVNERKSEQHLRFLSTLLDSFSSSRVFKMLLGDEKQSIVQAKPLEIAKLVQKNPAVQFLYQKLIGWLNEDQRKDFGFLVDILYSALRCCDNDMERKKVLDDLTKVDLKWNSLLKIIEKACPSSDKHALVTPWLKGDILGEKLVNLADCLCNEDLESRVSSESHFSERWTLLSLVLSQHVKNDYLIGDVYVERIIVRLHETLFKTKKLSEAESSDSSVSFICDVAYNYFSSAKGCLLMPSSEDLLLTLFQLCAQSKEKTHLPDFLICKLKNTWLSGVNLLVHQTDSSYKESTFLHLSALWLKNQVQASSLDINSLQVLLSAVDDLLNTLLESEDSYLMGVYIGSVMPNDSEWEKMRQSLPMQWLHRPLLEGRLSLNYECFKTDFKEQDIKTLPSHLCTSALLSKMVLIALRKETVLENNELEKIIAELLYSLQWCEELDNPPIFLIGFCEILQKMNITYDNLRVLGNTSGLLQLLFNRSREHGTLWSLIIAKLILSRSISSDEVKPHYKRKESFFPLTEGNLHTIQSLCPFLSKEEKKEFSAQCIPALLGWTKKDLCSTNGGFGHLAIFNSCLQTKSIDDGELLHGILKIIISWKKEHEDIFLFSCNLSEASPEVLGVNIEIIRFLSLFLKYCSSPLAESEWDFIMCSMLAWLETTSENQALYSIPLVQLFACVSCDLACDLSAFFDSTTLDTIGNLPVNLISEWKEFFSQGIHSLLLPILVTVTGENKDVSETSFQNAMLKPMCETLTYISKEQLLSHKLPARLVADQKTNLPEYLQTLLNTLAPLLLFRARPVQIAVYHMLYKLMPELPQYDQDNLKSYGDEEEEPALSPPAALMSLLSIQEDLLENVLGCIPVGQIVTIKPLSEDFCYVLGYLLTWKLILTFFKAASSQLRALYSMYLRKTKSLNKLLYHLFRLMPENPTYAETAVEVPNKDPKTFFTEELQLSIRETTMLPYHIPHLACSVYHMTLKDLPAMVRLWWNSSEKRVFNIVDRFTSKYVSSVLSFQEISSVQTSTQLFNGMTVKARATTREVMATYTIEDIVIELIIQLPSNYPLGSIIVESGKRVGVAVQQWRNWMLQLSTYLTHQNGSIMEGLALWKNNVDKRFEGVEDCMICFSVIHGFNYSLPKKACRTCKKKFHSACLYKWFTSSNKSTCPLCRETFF
UniProt Q9NTJ4: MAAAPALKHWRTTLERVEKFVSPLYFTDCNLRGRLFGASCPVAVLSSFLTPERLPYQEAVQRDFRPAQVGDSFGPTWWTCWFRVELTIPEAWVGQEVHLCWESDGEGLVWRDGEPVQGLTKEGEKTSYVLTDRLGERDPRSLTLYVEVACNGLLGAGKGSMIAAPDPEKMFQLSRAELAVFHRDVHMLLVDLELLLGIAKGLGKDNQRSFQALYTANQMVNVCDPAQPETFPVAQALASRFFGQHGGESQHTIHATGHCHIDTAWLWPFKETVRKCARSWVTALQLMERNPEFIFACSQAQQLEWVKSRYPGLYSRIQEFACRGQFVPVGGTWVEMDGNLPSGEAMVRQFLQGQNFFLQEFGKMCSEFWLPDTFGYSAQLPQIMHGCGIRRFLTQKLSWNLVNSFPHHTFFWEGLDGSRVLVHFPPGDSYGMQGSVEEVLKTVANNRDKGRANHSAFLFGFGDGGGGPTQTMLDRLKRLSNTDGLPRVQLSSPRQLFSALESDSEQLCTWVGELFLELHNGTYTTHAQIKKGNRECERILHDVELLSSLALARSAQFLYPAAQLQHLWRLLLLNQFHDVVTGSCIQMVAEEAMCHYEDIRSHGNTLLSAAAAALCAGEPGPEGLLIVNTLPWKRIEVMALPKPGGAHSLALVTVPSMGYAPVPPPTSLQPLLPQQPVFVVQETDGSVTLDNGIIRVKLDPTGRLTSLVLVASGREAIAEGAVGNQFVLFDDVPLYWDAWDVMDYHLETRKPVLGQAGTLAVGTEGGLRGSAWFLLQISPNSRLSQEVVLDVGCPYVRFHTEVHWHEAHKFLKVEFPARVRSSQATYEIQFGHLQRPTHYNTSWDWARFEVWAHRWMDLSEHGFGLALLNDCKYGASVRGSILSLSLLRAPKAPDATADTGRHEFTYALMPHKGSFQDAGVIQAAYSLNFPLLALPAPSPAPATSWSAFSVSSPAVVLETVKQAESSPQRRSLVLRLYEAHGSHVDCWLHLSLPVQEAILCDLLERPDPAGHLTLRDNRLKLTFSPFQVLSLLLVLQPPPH
UniProt P43355: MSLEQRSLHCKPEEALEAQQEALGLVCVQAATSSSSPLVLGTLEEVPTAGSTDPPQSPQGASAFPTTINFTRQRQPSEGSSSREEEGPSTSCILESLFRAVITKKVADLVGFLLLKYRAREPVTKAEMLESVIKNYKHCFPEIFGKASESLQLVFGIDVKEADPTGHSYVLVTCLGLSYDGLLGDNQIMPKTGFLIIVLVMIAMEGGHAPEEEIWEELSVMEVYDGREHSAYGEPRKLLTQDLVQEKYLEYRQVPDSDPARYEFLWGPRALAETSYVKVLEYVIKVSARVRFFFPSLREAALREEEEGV
UniProt Q96A72, whole entry, looked up: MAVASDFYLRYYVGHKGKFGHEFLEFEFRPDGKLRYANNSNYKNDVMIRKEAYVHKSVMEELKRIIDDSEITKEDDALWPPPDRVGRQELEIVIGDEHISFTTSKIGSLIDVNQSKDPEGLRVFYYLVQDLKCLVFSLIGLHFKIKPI
UniProt Q15013: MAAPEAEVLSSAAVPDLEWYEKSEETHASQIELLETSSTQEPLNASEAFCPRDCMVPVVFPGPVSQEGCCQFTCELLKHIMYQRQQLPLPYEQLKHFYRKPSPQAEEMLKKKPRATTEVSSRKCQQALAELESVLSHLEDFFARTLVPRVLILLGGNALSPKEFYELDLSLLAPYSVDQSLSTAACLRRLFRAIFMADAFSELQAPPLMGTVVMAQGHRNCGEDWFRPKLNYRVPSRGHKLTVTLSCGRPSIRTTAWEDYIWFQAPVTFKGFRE
UniProt Q8WV07: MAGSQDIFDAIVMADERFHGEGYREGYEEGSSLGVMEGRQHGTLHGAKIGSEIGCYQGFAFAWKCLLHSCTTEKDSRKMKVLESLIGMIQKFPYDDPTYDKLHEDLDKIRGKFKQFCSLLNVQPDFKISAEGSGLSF
UniProt Q9NQ48: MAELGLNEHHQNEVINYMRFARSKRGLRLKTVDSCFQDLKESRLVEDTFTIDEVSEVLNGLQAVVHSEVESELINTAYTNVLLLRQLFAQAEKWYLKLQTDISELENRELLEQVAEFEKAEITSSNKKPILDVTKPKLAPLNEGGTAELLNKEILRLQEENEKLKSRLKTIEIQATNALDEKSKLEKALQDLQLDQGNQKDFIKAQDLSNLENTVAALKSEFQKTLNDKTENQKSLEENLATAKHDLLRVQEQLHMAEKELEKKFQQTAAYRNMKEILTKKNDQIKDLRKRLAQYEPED
UniProt P53778: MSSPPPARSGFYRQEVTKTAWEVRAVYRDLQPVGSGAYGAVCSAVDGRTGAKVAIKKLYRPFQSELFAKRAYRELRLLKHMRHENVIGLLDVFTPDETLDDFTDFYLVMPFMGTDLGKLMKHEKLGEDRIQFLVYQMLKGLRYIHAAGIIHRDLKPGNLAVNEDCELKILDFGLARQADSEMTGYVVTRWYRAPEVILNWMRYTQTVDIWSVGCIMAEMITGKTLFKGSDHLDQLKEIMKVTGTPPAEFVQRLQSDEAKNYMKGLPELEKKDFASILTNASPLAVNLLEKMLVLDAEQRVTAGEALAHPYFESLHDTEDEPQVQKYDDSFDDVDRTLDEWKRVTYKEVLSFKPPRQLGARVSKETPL
UniProt P43360, whole entry, looked up: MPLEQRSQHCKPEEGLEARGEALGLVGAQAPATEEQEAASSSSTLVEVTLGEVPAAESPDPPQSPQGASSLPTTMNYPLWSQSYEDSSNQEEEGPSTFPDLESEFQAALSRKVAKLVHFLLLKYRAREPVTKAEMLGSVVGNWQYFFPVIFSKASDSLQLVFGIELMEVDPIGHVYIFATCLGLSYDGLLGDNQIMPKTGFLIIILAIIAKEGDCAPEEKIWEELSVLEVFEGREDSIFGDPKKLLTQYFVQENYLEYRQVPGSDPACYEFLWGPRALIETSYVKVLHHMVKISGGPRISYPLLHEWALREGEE

Assays:
Assay in all cases: log2 fold change, soluble protein after heating vs DMSO (PISA); higher = thermal stabilisation; K562 lysate, 10 uM; active = over 0.2 and 3.5 SD of the protein, either way, in both replicates (recomputed)
[1] = compound: NCC(=O)Nc1ccc(-n2nc(C(F)(F)F)cc2-c2ccc3c(ccc4ccccc43)c2)cc1
Method in brief: (§1)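 A 30 min treatment with 10 μM compound was applied to crude K562 extract at 1 mg/mL protein in PBS pH 7.4 with 1 mM MgCl2. Heating for 3 min spanned 48°C-58°C, after which aliquots were pooled, adjusted to 0.5% NP-40 at 4°C and spun at 21,000xg for 90 min. TMTpro 16plex LC-MS/MS of the supernatant, with channel sums equalised, gave values recorded as log-two fold change in thermal stability against solvent controls, from duplicates.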

vorinostat = compound: O=C(CCCCCCC(=O)Nc1ccccc1)NO [vorinostat]
Method in brief: as §1

silmitasertib = compound: O=C(O)c1ccc2c(c1)nc(Nc1cccc(Cl)c1)c1ccncc12 [silmitasertib]
Method in brief: as §1

[2] = compound: O=C1NC(=O)C(c2cnc3ccccn23)=C1c1cn2c3c(cc(F)cc13)CN(C(=O)N1CCCCC1)CC2
Method in brief: as §1

entospletinib = compound: c1cn2cc(-c3ccc4cn[nH]c4c3)nc(Nc3ccc(N4CCOCC4)cc3)c2n1 [entospletinib]
Method in brief: as §1

| Target | log2 fold change [1] | log2 fold change (vorinostat) | log2 fold change (silmitasertib) | log2 fold change [2] | log2 fold change (entospletinib) |
| --- | --- | --- | --- | --- | --- |
| MAP4K5 (UniProt Q9Y4K4) | inactive: -0.072 | inactive: -0.218 | inactive: -0.008 | inactive: -0.07 | inactive: 0 |
| MAP7 (UniProt Q14244) | inactive: 0.063 | inactive: -0.015 | inactive: 0.113 | inactive: -0.112 | inactive: 0.001 |
| MAGT1 (UniProt Q9H0U3) | inactive: 0.008 | inactive: 0.097 | inactive: -0.008 | inactive: -0.023 | inactive: 0.024 |
| LTN1 isoform 3 (UniProt O94822) | inactive: 0.057 | active: -0.58 | inactive: 0.04 | inactive: 0.028 | inactive: 0.034 |
| MAN2C1 isoform 4 (UniProt Q9NTJ4) | inactive: 0.045 | inactive: 0.003 | inactive: -0.04 | inactive: -0.008 | inactive: 0.015 |
| MAN1B1 (UniProt Q9UKM7) | inactive: -0.017 | inactive: 0.051 | inactive: 0.02 | inactive: -0.044 | inactive: 0.056 |
| MAGEA1 (UniProt P43355) | inactive: -0.058 | inactive: -0.074 | inactive: 0.042 | inactive: 0.022 | inactive: 0.04 |
| MAT2A (UniProt P31153) | inactive: 0.007 | inactive: 0.067 | inactive: 0.03 | inactive: -0.01 | inactive: 0 |
| MAGOHB (UniProt Q96A72) | inactive: 0.013 | inactive: -0.034 | inactive: -0.006 | inactive: 0.047 | inactive: 0.03 |
| MAML1 (UniProt Q92585) | inactive: -0.258 | inactive: -0.015 | inactive: -0.042 | inactive: 0.038 | inactive: -0.003 |
| MAD2L1BP isoform 3 (UniProt Q15013) | inactive: -0.026 | active: -0.299 | inactive: -0.019 | inactive: 0.008 | inactive: 0 |
| MAP4K2 (UniProt Q12851) | inactive: 0.03 | inactive: -0.263 | inactive: 0.064 | inactive: -0.104 | inactive: 0.15 |
| MAP7D3 (UniProt Q8IWC1) | inactive: 0.098 | inactive: 0.037 | inactive: 0.059 | inactive: -0.046 | inactive: -0.013 |
| LTO1 (UniProt Q8WV07) | inactive: 0.064 | inactive: -0.041 | inactive: 0.017 | inactive: -0.076 | inactive: -0.014 |
| MAML2 (UniProt Q8IZL2) | inactive: 0.078 | inactive: 0.103 | inactive: -0.121 | inactive: 0.008 | inactive: -0.161 |
| MAK16 (UniProt Q9BXY0) | inactive: 0.071 | inactive: 0.094 | inactive: -0.024 | inactive: 0.022 | inactive: -0.067 |
| MAPK3 (UniProt P27361) | inactive: -0.016 | inactive: -0.005 | inactive: 0.02 | inactive: 0.038 | inactive: -0.013 |
| LYSMD2 (UniProt Q8IV50) | inactive: 0.007 | inactive: -0.006 | inactive: 0.007 | inactive: -0.06 | inactive: 0.007 |
| MARK1 (UniProt Q9P0L2) | inactive: 0.017 | inactive: -0.225 | active: 0.485 | inactive: -0.059 | inactive: 0.049 |
| MANEA (UniProt Q5SRI9) | inactive: 0 | inactive: 0.217 | inactive: -0.103 | inactive: -0.047 | inactive: 0.055 |
| LZTFL1 (UniProt Q9NQ48) | inactive: 0.07 | inactive: 0.069 | inactive: 0.013 | inactive: -0.018 | inactive: 0.013 |
| MAP3K20 isoform 2 (UniProt Q9NYL2) | inactive: -0.057 | inactive: 0.124 | inactive: 0.036 | inactive: -0.033 | inactive: -0.064 |
| MAPK12 (UniProt P53778) | inactive: 0 | inactive: 0.181 | inactive: -0.027 | inactive: -0.067 | inactive: -0.027 |
| MAF1 (UniProt Q9H063) | inactive: -0.019 | inactive: -0.139 | inactive: -0.027 | inactive: 0.109 | inactive: -0.06 |
| LTV1 (UniProt Q96GA3) | inactive: 0.008 | inactive: 0.001 | inactive: 0.019 | inactive: 0.041 | inactive: -0.015 |
| MAGEA6 (UniProt P43360) | inactive: 0.008 | inactive: 0.055 | inactive: 0.089 | inactive: 0.154 | inactive: -0.07 |

Two successive records out of the list so far, for reference:

| Target | log2 fold change [1] | log2 fold change (vorinostat) | log2 fold change (silmitasertib) | log2 fold change [2] | log2 fold change (entospletinib) |
| --- | --- | --- | --- | --- | --- |
| MAP4K5 (UniProt Q9Y4K4) | inactive: -0.072 | inactive: -0.218 | inactive: -0.008 | inactive: -0.07 | inactive: 0 |
| MAP7 (UniProt Q14244) | inactive: 0.063 | inactive: -0.015 | inactive: 0.113 | inactive: -0.112 | inactive: 0.001 |
